Literature values, collected in patent US20050053625A1, “Method of treating viral infections” (priority 2001, published 2005).
At least one compound was matched to its structure with a doubt left.

Legend:
HBV [1] = conditions: same conditions as glucosidase inhibitor; cited from earlier work
HBV [2] = conditions: per year; cited from earlier work

Nc1ccn([C@@H]2CS[C@H](CO)O2)c(=O)n1 [lamivudine]
effect upon HBV antigen secretion (HBV [1]): no detectable effect
viral replication (HBV [1]): undetectable levels
escape mutants with resistance, of the treated (HBV [2]): 10-20%
